# PubChem BioAssay (NCATS)
# This is one part of the list. Further columns of the screen follow, without active or inactive calls. Most of these compounds were active or inconclusive in the main read-out, so they are no random draw. Words in brackets tell the shape of the fitted curve; partial curves, single points and poor fits give uncertain potencies.
# Assay: qHTS Assay for Inhibitors of PDE-IV (AID 607)
# Settings: HEK293 ACTOne CNG channel cells, membrane potential fluorescence; measured here: parental cell counter-screen
# Summary of the method: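 Live HEK293 cells with a modified cyclic nucleotide-gated (CNG) channel report intracellular cAMP via membrane-potential dye fluorescence (ex 535/em 590 nm). Endogenous PDE-IV was targeted. Compounds were tested at up to 22.9 uM final; RO 20-1724 100 uM served as control.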
row,Structure (SMILES),AC50
1,Clc1ccc([C@@H](OCCN2CCCCC2)c2ccccc2)cc1,"5.01 µM [rising, partial curve]"
2,CCC1=C(C[C@H]2NCCc3cc(OC)c(OC)cc32)C[C@H]2c3ccccc3CCN2C1,"3.98 µM [rising, single point]"
3,Cc1noc(C)c1C(=O)N1CCC2(CCCN(CC(C)C)C2)CC1,"15.8 µM [rising, single point]"
4,CNC(=O)[C@@H]1C[C@H]1[C@@H](NP(=O)(c1ccccc1)c1ccccc1)c1ccccc1,"0.631 µM [rising, single point]"
5,C[C@@H]1O[C@H](O[C@H]2C[C@@H](O)[C@@]3(CO)[C@H]4[C@@H](O)C[C@]5(C)[C@@H](C6=CC(=O)OC6)CC[C@]5(O)[C@H]4CC[C@]3(O)C2)[C@@H](O)[C@H](O)[C@@H]1O,"3.98 µM [rising, partial curve]"
6,CC1N(P(=O)(c2ccccc2)c2ccccc2)CC(O)(c2ccccc2)CC12CC2 (stereo not given),"6.31 µM [rising, partial curve]"
7,CCCN(CCC)[C@@H]1CCc2c(OC)cccc2[C@@H]1C,"15.8 µM [rising, partial curve]"
8,CCCC[C@@H]1C[C@H]1C(NP(=O)(c1ccccc1)c1ccccc1)c1ccc(Cl)cc1 (stereo not given in full),"5.01 µM [rising, partial curve]"
9,CCNC(=O)[C@@H]1O[C@@H](n2cnc3c(N)ncnc32)[C@@H](O)[C@H]1O,"12.6 µM [rising, partial curve]"
10,CCN(CC)CCO[C@H]1CC[C@@]2(C)C(=CC[C@@H]3[C@H]2CC[C@]2(C)C(=O)CC[C@H]32)C1,"7.94 µM [rising, partial curve]"

# Compounds 4 to 5 from above:
row,Structure (SMILES),AC50
4,CNC(=O)[C@@H]1C[C@H]1[C@@H](NP(=O)(c1ccccc1)c1ccccc1)c1ccccc1,"0.631 µM [rising, single point]"
5,C[C@@H]1O[C@H](O[C@H]2C[C@@H](O)[C@@]3(CO)[C@H]4[C@@H](O)C[C@]5(C)[C@@H](C6=CC(=O)OC6)CC[C@]5(O)[C@H]4CC[C@]3(O)C2)[C@@H](O)[C@H](O)[C@@H]1O,"3.98 µM [rising, partial curve]"
